Reference: PMC6891087
These are yes or no findings as the source states them, for the method shown. Binding seen in cells or lysates may run through a third protein. Some results given as binding are weak or reduced against the parent protein; the word gives no strength. Sequences can lack the tags named with a protein.

Protein sequences, listed by entry. Tags and fused reporters are not part of them.
UniProt Q96GD4: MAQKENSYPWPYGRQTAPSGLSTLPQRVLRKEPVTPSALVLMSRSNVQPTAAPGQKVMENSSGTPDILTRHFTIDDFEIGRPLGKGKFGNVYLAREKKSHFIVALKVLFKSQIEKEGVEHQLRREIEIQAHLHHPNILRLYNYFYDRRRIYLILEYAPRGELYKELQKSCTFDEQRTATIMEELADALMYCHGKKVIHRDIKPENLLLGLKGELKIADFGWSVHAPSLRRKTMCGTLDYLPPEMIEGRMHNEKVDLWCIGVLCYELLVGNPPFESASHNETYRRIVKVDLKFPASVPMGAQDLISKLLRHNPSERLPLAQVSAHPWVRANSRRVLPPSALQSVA

Key:
Assay in all cases: co-IP; anti-myc antibody on protein G beads; lysate of mitotic HeLa Kyoto cells (RO3306 washout, shake-off) transfected with Myc-Borealin constructs; 50 mM Tris pH 7.4, 400 mM NaCl, 0.5% IGEPAL, 0.1% deoxycholate; blots for Survivin, INCENP, Aurora B
[1] = target: T1, Myc-Borealin 10-end (UniProt Q53HL2)
T1 sequence: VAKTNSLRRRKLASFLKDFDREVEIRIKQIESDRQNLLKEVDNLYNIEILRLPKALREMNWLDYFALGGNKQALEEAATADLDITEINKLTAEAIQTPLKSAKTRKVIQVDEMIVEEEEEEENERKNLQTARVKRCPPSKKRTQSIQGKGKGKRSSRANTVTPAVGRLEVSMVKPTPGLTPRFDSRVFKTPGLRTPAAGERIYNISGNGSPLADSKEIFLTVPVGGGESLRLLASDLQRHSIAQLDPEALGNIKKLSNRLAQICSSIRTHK

[2] = target: T2, Myc-Borealin Δloop (UniProt Q53HL2)
T2 sequence: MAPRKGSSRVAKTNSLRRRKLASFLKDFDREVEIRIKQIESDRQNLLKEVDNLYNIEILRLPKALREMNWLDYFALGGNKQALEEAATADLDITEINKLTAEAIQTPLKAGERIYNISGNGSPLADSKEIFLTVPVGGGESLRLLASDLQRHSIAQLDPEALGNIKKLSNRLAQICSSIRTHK

[3] = target: T3, Myc-Borealin 10-221 (UniProt Q53HL2)
T3 sequence: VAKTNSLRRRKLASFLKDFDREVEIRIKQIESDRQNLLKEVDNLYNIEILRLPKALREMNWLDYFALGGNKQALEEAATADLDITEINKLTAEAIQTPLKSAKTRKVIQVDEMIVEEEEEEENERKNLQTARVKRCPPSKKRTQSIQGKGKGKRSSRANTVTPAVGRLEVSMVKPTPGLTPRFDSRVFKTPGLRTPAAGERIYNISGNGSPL

Measured: binding

Aurora B kinase (endogenous, HeLa) (from UniProt Q96GD4 1-344) (enzyme)
binds: all assays above
